# Like-named read-outs stand apart in the source and are kept apart here. Results are given in words; binding and its absence hold for the method and conditions named. For some assays here: Binding calls can cover weak binding; strength is not graded here.
# Sequences of proteins named here, by UniProt entry; tags and fusion partners are left off. A change or cut given only in a name is not applied to a line headed by its entry.
# UniProt P53067: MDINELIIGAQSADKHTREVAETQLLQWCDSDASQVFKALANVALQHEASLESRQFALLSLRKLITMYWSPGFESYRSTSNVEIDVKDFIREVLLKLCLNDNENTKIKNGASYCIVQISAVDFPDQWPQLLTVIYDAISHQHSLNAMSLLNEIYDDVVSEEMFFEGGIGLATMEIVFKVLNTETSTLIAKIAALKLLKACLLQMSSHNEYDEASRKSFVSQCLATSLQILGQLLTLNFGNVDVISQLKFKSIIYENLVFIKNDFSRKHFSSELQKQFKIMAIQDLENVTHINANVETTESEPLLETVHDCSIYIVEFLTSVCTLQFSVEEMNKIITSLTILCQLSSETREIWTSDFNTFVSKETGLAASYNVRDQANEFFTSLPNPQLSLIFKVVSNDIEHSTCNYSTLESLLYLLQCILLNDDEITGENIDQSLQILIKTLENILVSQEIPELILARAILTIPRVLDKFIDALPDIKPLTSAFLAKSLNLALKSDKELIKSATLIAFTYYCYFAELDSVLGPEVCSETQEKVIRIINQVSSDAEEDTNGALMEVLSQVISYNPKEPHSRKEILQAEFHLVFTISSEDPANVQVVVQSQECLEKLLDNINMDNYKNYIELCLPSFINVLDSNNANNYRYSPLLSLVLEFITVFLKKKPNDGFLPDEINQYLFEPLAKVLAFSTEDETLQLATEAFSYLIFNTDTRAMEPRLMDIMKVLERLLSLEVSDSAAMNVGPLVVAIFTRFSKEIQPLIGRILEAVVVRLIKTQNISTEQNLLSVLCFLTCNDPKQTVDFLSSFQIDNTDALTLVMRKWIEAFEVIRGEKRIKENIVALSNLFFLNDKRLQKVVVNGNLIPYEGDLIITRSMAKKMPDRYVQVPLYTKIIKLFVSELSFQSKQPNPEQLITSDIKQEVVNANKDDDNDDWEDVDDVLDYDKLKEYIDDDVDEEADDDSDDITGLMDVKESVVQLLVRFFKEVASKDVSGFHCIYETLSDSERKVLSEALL
# What was measured:
# [1] = target: MBP-Kap114 Δh19L (S. cerevisiae) (UniProt P53067); test: pull-down; MBP-Kap114 (WT or mutant; or MBP alone) 1 µM immobilized on amylose resin, equimolar Nap1_(2) ± H2A-H2B (1 or 2 µM) ± Ran^GTP; Assay Buffer (20 mM HEPES pH 7.4, 150 mM NaCl, 2 mM MgCl2, 10% glycerol, 2 mM DTT), 30 min at 4°C; Coomassie-stained SDS-PAGE; both purified
# [2] = target: MBP-Kap114 Δh19L (S. cerevisiae) (UniProt P53067); test: as above; remark: listed apart in the source
molecule,measurement,setting,value
"Sc Ran^GTP (Gsp1 residues 1–179, Q71L) (from UniProt P32835 1-179) (enzyme)",binding,[1],binds
"Nap1 FL (C200A, C249A, C272A) (natural protein, S. cerevisiae, UniProt P25293 1-417, looked up, Nap1 (nucleosome assembly protein 1), S. cerevisiae, full length (FL), with C200A, C249A, C272A for specific labeling on 414C; pHAT4 vector, gift from Sheena D'Arcy; Counted as a dimer (Nap1_(2)) in all molar ratios; alone a mixture of dimers and tetramers; also called Nap1_(2); Nap1_(2) FL; source: E. coli BL21 gold, purified (Ni-NTA, TEV cleavage, HiTrap Q, Superdex S200)) MSDPIRTKPKSSMQIDNAPTPHNTPASVLNPSYLKNGNPVRAQAQEQDDKIGTINEEDILANQPLLLQSIQDRLGSLVGQDSGYVGGLPKNVKEKLLSLKTLQSELFEVEKEFQVEMFELENKFLQKYKPIWEQRSRIISGQEQPKPEQIAKGQEIVESLNETELLVDEEEKAQNDSEEEQVKGIPSFWLTALENLPIVADTITDRDAEVLEYLQDIGLEYLTDGRPGFKLLFRFDSSANPFFTNDILAKTYFYQKELGYSGDFIYDHAEGAEISWKDNAHNVTVDLEMRKQRNKTTKQVRTIEKITPIESFFNFFDPPKIQNEDQDEELEEDLEERLALDYSIGEQLKDKLIPRAVDWFTGAALEFEFEEDEEEADEDEDEEEDDDHGLEDDDGESAEEQDDFAGRPEQAPECKQS",binding,[2],no binding (tested: 1 µM)

# Source: paper PMC11602657, “Nap1 and Kap114 co-chaperone H2A-H2B and facilitate targeted histone release in the nucleus” (The Journal of Cell Biology, 2024)
